Data as given in PubChem BioAssay AID651664 (NMMLSC, 2012).
Fewer than 10 of roughly 1,800 compounds were called active.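 The calls were made as follows: active = inhibition of granule release above a set limit; inactive = the rest.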 The list shows a part of the results.

experiment: LAMP-1 surface externalization blockers in TALL-104 cells – cell-based, flow cytometry, validation set (AID 651664); conditions: TALL-104 LAMP-1 externalization, at 15.2 µM, active compounds read high, stimulated with thapsigargin and PMA

inhibition, inactive:
CCOc1ccc(NS(=O)(=O)c2ccc(SC)cc2)cc1 -1.1%
Cn1ccnc1C(O)(c1nnc(-c2ccccc2)o1)C(F)(F)F (configuration not stated) 0.4%
Cc1cc(C(=O)CSc2nc3ccccc3o2)c(C)n1CC1CCCO1 (configuration not stated) -0.3%
O=C(c1ccc(-c2ccccc2)cc1)N1CCN(C(=O)c2ccco2)CC1 0.7%
O=C(Nc1ccncc1)c1cc(F)cc(F)c1 -2.6%
CCCSc1nnc(NC(=O)Nc2ccc(F)cc2)s1 -0.5%
COC(=O)CCC(=O)N1CCOCCOCCN(C(=O)CCC(=O)OC)CCOCCOCC1 19.7%
O=C(N=Nc1c(O)n(C2OC(=O)c3ccccc32)c2ccccc12)c1ccc(O)cc1 (configuration not stated) -3.3%
CC(C)=CC(=O)Nc1nnc(C(C)C)s1 -2%
O=C(c1cc(=O)[nH]c2ccccc12)N1CCN(S(=O)(=O)c2ccc3ccccc3c2)CC1 -2.2%
CCCSc1nsc(SCCC)c1C#N -0.6%
O=c1[nH]c2ccc(Cl)cc2c(-c2ccccc2)c1SC(=S)N1CCCCC1 -1.2%
CCNC1=C(Cl)C(=O)c2ccccc2C1=O 0.7%
CC1(C(=O)O)CC(C)(C(=O)O)CC(C)(C(=O)O)C1 (configuration not stated) 4.6%
Cc1cc(NC(=O)COc2ccc(Cl)cc2Cl)n(-c2ccccc2)n1 0.8%
CCC(C)(C)NC(=O)C(c1ccco1)N(C(=O)Cn1nnc2ccccc21)c1ccc2c(c1)OCO2 (configuration not stated) -0.1%
CCOc1ccccc1N(CC(=O)NC1CCCCC1)C(=O)CCCC(=O)Nc1ccccn1 3.5%
CCN(CC)S(=O)(=O)c1cc(-c2nn(C)c(=O)c3ccccc23)ccc1C 1.2%
O=C(Nc1ccccc1C(=O)N1CCCCC1)c1cccc(S(=O)(=O)N2CCOCC2)c1 0.9%
COc1ccc(Oc2cn[nH]c2-c2ccc(O)cc2O)cc1 -0.2%
Cc1cc2nc(N)sc2cc1C 0.1%
COC(C(=O)Nc1cccc(F)c1)c1ccccc1 (configuration not stated) -3.4%
Cc1cc(C(=O)CSc2nc3ccc(Cl)cc3[nH]2)c(C)n1CC1CCCO1 (configuration not stated) 1.6%
Cc1ccc(SCC(=O)Nc2cccnc2)cc1 -2.2%
COc1cc(OC)cc(C(=O)Nc2nc3ccccc3[nH]2)c1 -1%
CCN1CCCC1CN(Cc1cc2ccc(C)c(C)c2[nH]c1=O)C(=O)Nc1ccccc1OC (configuration not stated) 0.9%
CCN(CC)C(=O)CSc1nc2ccccc2c(=O)n1OC 0.3%

Sorted by SMILES length (low to high): some entries from above.
inhibition, inactive:
CCCSc1nsc(SCCC)c1C#N -0.6%
CCOc1ccc(NS(=O)(=O)c2ccc(SC)cc2)cc1 -1.1%
O=C(c1cc(=O)[nH]c2ccccc12)N1CCN(S(=O)(=O)c2ccc3ccccc3c2)CC1 -2.2%
